Reference: PubChem BioAssay AID493014 (National Center for Advancing Translational Sciences (NCATS), 2011)
Some of the results follow. The main result of the screen is listed elsewhere. These columns were measured beside it and carry no call. Most of these compounds were active or inconclusive in the main read-out, so they are no random draw. Potencies come from curve fits of mixed quality, noted in brackets.

Experiment: qHTS Assay to Find Inhibitors of Chronic Active B-Cell Receptor Signaling
Conditions: ABC-DLBCL IkBa-CBG/CBR reporter, luminescence ratio (green luciferase fused to IkBa over red control in TMD8 lymphoma cells), 4 h
Procedure, shortened: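 Concentration-response series (up to 46 uM) were applied to TMD8 dual-reporter cells for 4 h at 37C with doxycycline. Green/red ratio, after filter-overlap correction, defined %Activity; red signal alone was normalised to basal cells and zero luminescence.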

[1] = measured here: CBR red luminescence, cell number
[2] = measured here: IkBa-CBG green luminescence

SMILES | AC50 [1] | AC50 [2]
COc1ccccc1-c1cc2nc(C)c(CCC(=O)NCc3ccco3)c(C)n2n1 | 10.3 µM [falling, partial curve, poor fit] | –
COc1ccc(-c2cc3ccccc3s2)cc1[C@H]1[C@H]2C=CC[C@@H](C)[C@@H]2C(=O)N1Cc1ccccc1 | 7.94 µM [falling, partial curve, poor fit] | –
Cc1ccc(C(=O)N/N=C/c2cn(Cc3ccccc3)c3ccccc23)cn1 | 4.47 µM [falling, partial curve, poor fit] | –
Cc1cc2c(C)nc(N/N=C/c3ccc([N+](=O)[O-])cc3)nc2o1 | 0.651 µM [rising, full curve] | –
O=C1C2C(C(=O)N1/N=C/c1ccc([N+](=O)[O-])o1)C1C=CC2C12CC2 (stereo unspecified) | 18.4 µM [falling, single point] | 18.4 µM [falling, partial curve, poor fit]
Cc1cnc(NC(=O)Nc2ccc(Cl)cc2)s1 | 0.1 µM [rising, full curve, poor fit] | –
COc1cccc(CNC(=O)c2ccc(NC(=O)C3=CSCCO3)cc2)c1 | 11.2 µM [rising, partial curve] | –
COc1ccc(/C=C2/SC(=O)N(CCC(=O)Nc3ccc(S(=O)(=O)Nc4nccs4)cc3)C2=O)cc1 | 11.6 µM [falling, partial curve] | –
Cn1cc(Cl)c(C(=O)NC(=S)Nc2sc3c(c2C#N)CCCCC3)n1 | 11.6 µM [rising, partial curve] | –
Cc1ccc(C(=O)OCC(=O)NCCc2ccccc2)cc1C | 20.6 µM [rising, single point] | –
COC(=O)C1(C(F)(F)F)N=C(C(F)(F)F)Nc2ccc(Cl)cc21 (stereo unspecified) | 13 µM [rising, partial curve, poor fit] | –
Cc1c(OCC(=O)OC(C)C)ccc2c3c(c(=O)oc12)CCC3 | 11.6 µM [rising, partial curve, poor fit] | –
Cc1cc(C)c(C#N)c(SCSCc2ccccc2)n1 | 29.1 µM [rising, single point] | –
Cc1cc(-c2ccc(C)c(S(=O)(=O)NCCCN3CCN(c4ccccc4F)CC3)c2)on1 | 28.2 µM [falling, single point] | –
C=CCSc1nnc(-c2cccnc2)o1 | 23.1 µM [rising, partial curve, poor fit] | –
O=C(COC(=O)Cn1cc(C(F)(F)F)ccc1=O)NCc1ccccc1 | 11.6 µM [rising, partial curve, poor fit] | –
O=[N+]([O-])c1ccc2cn(-c3ccccc3)nc2c1 | 1.46 µM [rising, partial curve, poor fit] | –
Cc1ccc([N+](=O)[O-])cc1Nc1nc(N2CCCC2)nc(N2CCCC2)n1 | 35.5 µM [rising, partial curve, poor fit] | –
O=C(CSc1ncnc2ccccc12)c1cccs1 | 7.08 µM [falling, partial curve] | 12.6 µM [rising, partial curve, poor fit]
CN(CC(=O)Nc1ccc2c(c1)OCCO2)S(=O)(=O)c1ccc(Br)s1 | 2.06 µM [falling, partial curve, poor fit] | –
O=C(Nc1ccc(Cl)cc1Cl)c1cc(S(=O)(=O)NCc2ccc3c(c2)OCO3)ccc1F | 28.2 µM [rising, single point] | –

SMILES | AC50 [1] | AC50 [2]
CCCCNC(=O)c1c(N)n(/N=C/c2ccccn2)c2nc3ccccc3nc12 | 2.24 µM [falling, full curve] | –
COc1cc(/C=N/NC(=O)Cc2ccccc2)cc(OC)c1OC | 28.2 µM [rising, single point] | –
O=C(O)c1ccc(/C=N/Nc2nc3ccccc3[nH]2)cc1 | 1.26 µM [falling, full curve, poor fit] | –
Cc1ccc(/C=C/C(=O)c2ccccc(=O)c2O)cc1C | 29.1 µM [falling, single point] | –
COc1ccc(CC(=O)Nc2nnc(C(C)C)s2)cc1 | 11.2 µM [rising, partial curve, poor fit] | –
Cc1cc(Cl)ccc1NC(=O)CN1CCN(C(=O)c2ccco2)CC1 | 5.01 µM [rising, full curve, poor fit] | –
Cc1cccc(NC(=O)c2cccc(S(=O)(=O)N3CCc4ccccc4C3)c2)n1 | 6.51 µM [rising, single point] | –
CCOC(=O)Cc1csc(NC(=O)c2csc(C)c2)n1 | 29.1 µM [falling, single point] | –
O=C(Cc1ccc(F)cc1)c1ccc(O)cc1O | 29.1 µM [rising, single point] | –
Cc1ccc(-n2c(C)cc(=O)cc2C)c(C)c1 | 2.31 µM [rising, full curve, poor fit] | –
COc1cccc(C=Nc2cccc3c(=O)[nH][nH]c(=O)c23)c1O | 14.1 µM [falling, partial curve, poor fit] | –
Cc1ccccc1C(=O)NNC(=O)c1ccc(F)cc1 | 15.8 µM [falling, single point] | –
CCOc1ccc(NC(=O)c2cccc(-n3cccc3)c2)cc1S(=O)(=O)N1CCOCC1 | 14.6 µM [rising, partial curve] | –
COc1cc(NC(=S)NCCC(c2ccccc2)c2ccccc2)c(OC)cc1Cl | 23.1 µM [falling, partial curve, poor fit] | –
Cc1sc2nc(C(C)C)nc(SCC(=O)N3c4ccccc4CC3C)c2c1C (stereo unspecified) | 3.66 µM [rising, full curve] | –
Cc1nn(Cc2ccccc2)c2c1C(c1ccncc1)C(C#N)=C(N)O2 (stereo unspecified) | 31.6 µM [falling, partial curve, poor fit] | –
ON=C1c2ccccc2-c2ccccc21 | 12.6 µM [falling, partial curve, poor fit] | –
Cc1ccc(S(=O)(=O)NCCC(=O)NNC(=O)c2ccccc2Cl)cc1C | 14.6 µM [falling, partial curve, poor fit] | –
Cc1ccc(S(=O)(=O)Nc2c(NC3CCCCC3)c3ccccc3oc2=O)cc1 | 20 µM [falling, single point] | –
COc1cccc(C(=O)N[C@@H](CCSC)c2nc3ccccc3[nH]2)c1 | 12.6 µM [falling, partial curve, poor fit] | –
Oc1ccc(N=Nc2n[nH]c(-c3ccc(Cl)cc3)n2)cc1 | 0.891 µM [falling, full curve] | –

Reprinted at random: 2 entries already listed.
SMILES | AC50 [1] | AC50 [2]
O=[N+]([O-])c1ccc2cn(-c3ccccc3)nc2c1 | 1.46 µM [rising, partial curve, poor fit] | –
O=C1C2C(C(=O)N1/N=C/c1ccc([N+](=O)[O-])o1)C1C=CC2C12CC2 (stereo unspecified) | 18.4 µM [falling, single point] | 18.4 µM [falling, partial curve, poor fit]

Later entries

SMILES | AC50 [1] | AC50 [2]
CC(C)c1ccc(NC(=O)C2CC2c2ccccc2)cc1 (stereo unspecified) | 14.1 µM [rising, partial curve, poor fit] | –
O=C1NC(=Nc2ccccc2Cl)S/C1=C\c1cc([N+](=O)[O-])ccc1O | 22.4 µM [falling, single point] | –
COc1cc(C2NC(=O)NC(C)=C2C(=O)OCc2ccc(C)cc2)cc(OC)c1O (stereo unspecified) | 0.794 µM [rising, full curve, poor fit] | 12.6 µM [falling, partial curve, poor fit]
Cc1ccc(CNC(=O)CCS(=O)(=O)c2ccc(Br)s2)cc1 | 16.4 µM [rising, single point] | –
COc1ccc(-c2ccc(SCC(=O)c3cccs3)nn2)cc1 | 35.5 µM [falling, single point] | –
COc1cc2c(cc1OC)CN(c1ccc(F)cc1[N+](=O)[O-])CC2 | 5.62 µM [rising, partial curve, poor fit] | –
C[C@H](CO)N1C[C@H](C)[C@@H](CN(C)Cc2ccccc2)Oc2c(NS(=O)(=O)c3cn(C)cn3)cccc2C1=O | 4.11 µM [falling, partial curve, poor fit] | –
CCOC(=O)/C=C1\SCC(=O)N1Cc1nnc(-c2ccccc2Br)o1 | 6.51 µM [falling, partial curve] | –
CCn1ncc(Br)c1C(=O)Nc1sc2c(c1C(N)=O)CCC2 | 0.562 µM [falling, partial curve, poor fit] | –
O=C(CNC(=O)c1cnccc1C(F)(F)F)c1cccc(Cl)c1 | 7.08 µM [falling, partial curve, poor fit] | –
COc1ccc(N2CSC3=C(C#N)C(c4cccc(OC)c4OC)CC(=O)N3C2)cc1 (stereo unspecified) | 2.91 µM [rising, full curve] | –
COCCOC(=O)c1c(C)n(C)c2ccc(OC(=O)c3ccccc3F)cc12 | 2.51 µM [rising, partial curve, poor fit] | –
Cc1ccc(C)c(C(=O)N(Cc2nc(-c3ccc(Cl)cc3)no2)C(C)C)c1 | 0.013 µM [falling, full curve, poor fit] | –
O=C(Nc1cnn(Cc2ccc(Cl)cc2Cl)c1)c1noc2c1CCCC2 | 29.1 µM [falling, single point] | 23.1 µM [rising, partial curve, poor fit]
COc1ccc(C2SCC(=O)N2c2c(C)n(C)n(-c3ccccc3)c2=O)c(OC)c1 (stereo unspecified) | 3.98 µM [rising, full curve, poor fit] | –
COc1ccc(NC(=O)c2ccco2)cc1NC(=O)c1cc2ccccc2o1 | 1.41 µM [rising, partial curve, poor fit] | –
CNC(=O)COC(=O)c1ccccc1C(=O)c1ccc(Cl)c([N+](=O)[O-])c1 | 5.62 µM [falling, full curve] | 5.62 µM [rising, full curve]
CCOC(=O)c1sc(NC(=O)CSc2n[nH]c(C)n2)nc1C | 10 µM [falling, partial curve, poor fit] | –
COC(=O)c1cc(OC)c(OC)cc1NC(=O)c1ccco1 | 12.6 µM [falling, partial curve, poor fit] | –
